PubChem BioAssay AID1259266 | Sanger Institute, 2017
Here is an unselected part of 794 reagents. Over the whole deposit, 16 (2%) are marked active. 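Calls reflect knock-down alone, not drug synergy; viability seems capped at 1 and z-scores at 0.585.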 Entries without a mark were called inactive. Not stated in the record: the amount of reagent, the time to read-out.

- Aim: 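Search kinases and colorectal cancer genes for essential genes and drug synergy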 (primary screen)
- System: LS123 human colorectal cancer cells
- Knock-down reagent: siRNA pool against human genes
- Treatment: anchor drugs BYL719 (1 µM), cetuximab (5 µg/ml) or trametinib (10 nM), each chosen to barely slow growth alone; DMSO vehicle as the drug-free arm
- Measured: 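Replicate-averaged viability scaled to non-targeting pools, robust z-score for siRNA alone, and a synergy score per anchor drug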
- Scale: robust z-score, knock-down alone: higher = more cells surviving after knock-down; viability, knock-down alone: higher = more viable cells; synergy score with trametinib and synergy score with BYL719 and synergy score with cetuximab: higher = stronger synthetic lethality with drug
- Active means: 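Essential when the robust z-score of the knock-down alone is below -3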
- Calls: active = essential (knock-down alone cuts viability); inactive = no change

| Gene | robust z-score, knock-down alone | viability, knock-down alone (fraction of control) | synergy score with trametinib | synergy score with BYL719 | synergy score with cetuximab |
| --- | --- | --- | --- | --- | --- |
| EPHB6 | 0.51 | 0.996 | -0.0544 | -0.0335 | -0.0166 |
| GAK | 0.424 | 0.99 | 0.0186 | -0.00812 | 0.00429 |
| AKT3 | 0.585 | 1 | 0.0156 | 0.0305 | 0.04 |
| PHKA1 | 0.585 | 1 | -0.0708 | -0.0965 | -0.0122 |
| NAGK | -2.37 | 0.824 | -0.166 | -0.0887 | -0.000234 |
| CAMKK2 | 0.585 | 1 | -0.0839 | -0.156 | -0.0122 |
| BMX | 0.585 | 1 | -0.184 | -0.0542 | -0.0122 |
| TAF1L | 0.585 | 1 | -0.0735 | -0.0989 | -0.0122 |
| GRK5 | 0.585 | 1 | 0.00325 | -0.159 | -0.0122 |
| MAGI3 | 0.585 | 1 | -0.0714 | -0.159 | 0.00823 |
| EPHA2 | 0.585 | 1 | -0.186 | -0.159 | -0.0122 |
| NME4 | 0.585 | 1 | -0.146 | -0.108 | -0.0122 |
| BRWD1 | 0.585 | 1 | -0.0612 | -0.0717 | 0.0104 |
| STK3 | 0.585 | 1 | -0.00502 | -0.0554 | -0.0122 |
| GNAS | -0.5 | 0.936 | -0.0253 | -0.131 | -0.061 |
| STK16 | 0.585 | 1 | -0.186 | -0.159 | -0.0122 |
| EEF2K | 0.0699 | 0.969 | 0.00703 | 0.0369 | 0.211 |
| ANKK1 | 0.585 | 1 | -0.0936 | -0.126 | -0.0122 |
| PDGFRA | -1.27 | 0.89 | -0.133 | -0.225 | -0.121 |
| PFKP | 0.585 | 1 | 0.0751 | -0.00577 | 0.00404 |
| CDC7 | 0.585 | 1 | -0.0644 | -0.0939 | -0.0122 |
| MAP4K4 | 0.585 | 1 | -0.0626 | -0.0882 | -0.00444 |
| PMVK | 0.0903 | 0.971 | -0.0549 | 0.0966 | -0.0412 |
| EPHB4 | 0.585 | 1 | -0.098 | -0.0193 | 0.0574 |
| SBK1 | 0.528 | 0.997 | -0.0402 | -0.0702 | -0.0155 |
| CDK8 | 0.585 | 1 | -0.0988 | -0.12 | -0.0122 |
| AK4 | -0.303 | 0.947 | -0.0985 | -0.0993 | -0.0643 |
| DNMT3A | 0.585 | 1 | -0.186 | -0.158 | -0.0122 |
| PAK1 | -3.3 (active) | 0.77 | 0.0322 | -0.0446 | 0.0241 |
| CSNK1G3 | 0.585 | 1 | -0.119 | -0.144 | -0.0122 |
| ATM | 0.457 | 0.992 | 0.0183 | -0.0767 | -0.0197 |
| RPS6KA2 | -1.64 | 0.868 | -0.147 | -0.118 | 0.00399 |
| EFNA5 | 0.585 | 1 | -0.186 | -0.0656 | -0.0122 |
| SKAP1 | 0.585 | 1 | -0.131 | -0.159 | -0.0122 |
| DLG3 | 0.585 | 1 | -0.113 | -0.159 | -0.0122 |
| TEX14 | -0.994 | 0.906 | -0.0228 | -0.0768 | -0.0418 |
| PAK6 | 0.585 | 1 | 0.0153 | -0.0474 | 0.0176 |
| NRBP2 | -0.976 | 0.907 | 0.0554 | -0.0327 | 0.134 |
| CALM2 | -0.645 | 0.927 | 0.113 | -0.0426 | 0.0168 |
| STK32A | -0.0652 | 0.961 | -0.0779 | -0.0671 | -0.0504 |
| STAG2 | 0.585 | 1 | -0.102 | -0.159 | -0.0122 |
| LTK | -0.195 | 0.954 | -0.0474 | -0.131 | 0.0372 |
| GALK1 | -3.65 (active) | 0.749 | -0.0232 | -0.0337 | -0.0885 |
| ASPM | 0.585 | 1 | -0.0834 | -0.104 | -0.0122 |
| N4BP2 | 0.585 | 1 | -0.0157 | -0.128 | -0.0122 |
| DCLK3 | 0.585 | 1 | -0.158 | -0.0999 | -0.0122 |
| NLK | 0.287 | 0.982 | -0.0516 | -0.0822 | -0.0297 |
| SRGAP3 | 0.487 | 0.994 | -0.143 | -0.164 | -0.018 |
| NEK5 | 0.585 | 1 | 0.00882 | -0.138 | -0.0122 |
| EXOSC10 | 0.585 | 1 | -0.0461 | -0.104 | -0.0122 |

Laid out differently: results already given
STK16
- robust z-score, knock-down alone: 0.585
- viability, knock-down alone (fraction of control): 1
- synergy score with trametinib: -0.186
- synergy score with BYL719: -0.159
- synergy score with cetuximab: -0.0122

EEF2K
- robust z-score, knock-down alone: 0.0699
- viability, knock-down alone (fraction of control): 0.969
- synergy score with trametinib: 0.00703
- synergy score with BYL719: 0.0369
- synergy score with cetuximab: 0.211

ANKK1
- robust z-score, knock-down alone: 0.585
- viability, knock-down alone (fraction of control): 1
- synergy score with trametinib: -0.0936
- synergy score with BYL719: -0.126
- synergy score with cetuximab: -0.0122

PDGFRA
- robust z-score, knock-down alone: -1.27
- viability, knock-down alone (fraction of control): 0.89
- synergy score with trametinib: -0.133
- synergy score with BYL719: -0.225
- synergy score with cetuximab: -0.121

PFKP
- robust z-score, knock-down alone: 0.585
- viability, knock-down alone (fraction of control): 1
- synergy score with trametinib: 0.0751
- synergy score with BYL719: -0.00577
- synergy score with cetuximab: 0.00404

CDC7
- robust z-score, knock-down alone: 0.585
- viability, knock-down alone (fraction of control): 1
- synergy score with trametinib: -0.0644
- synergy score with BYL719: -0.0939
- synergy score with cetuximab: -0.0122
